According to paper doi:10.1101/592881:

Target: T1, N-terminally biotinylated active region of PNP-A synthetic peptide (Arabidopsis thaliana) (UniProt Q9ZV52)
T1 sequence (peptide, biotin on the N-terminus): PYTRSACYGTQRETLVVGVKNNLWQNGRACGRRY
Test: affinity purification with mass spectrometry

Row | Substance | binding
1 | PNP-A receptor protein (PNPAR), endogenous | binds
2 | PNP-R1, endogenous (receptor) | no binding

No constants are given. Whether binding was seen depends on the method and setting. In cells and extracts the contact can be indirect. These calls come from enrichment with a bait or labelling near it, and not all partners need be listed. A no says only that the protein was not detected with the bait.
